Measurements reported in PubChem BioAssay AID743458 (Peter MacCallum Cancer Centre, 2014).
In all, the deposit lists about 1,800 reagents; this is a part drawn at random. 732 of all reagents (41%) were called active. 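Calls are per siRNA reagent; a gene was deemed confirmed only if most of its four siRNAs scored.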

Test: 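Find knock-downs that make vorinostat-resistant colon cancer cells sensitive again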 (follow-up of hits)
System: human HCT116-VR colon cancer cells made resistant to vorinostat
Knock-down reagent: single siRNA or pool against human genes, 25 nM per single siRNA
Timing: about 72 h after transfection, including 24 h of drug
Conditions: vorinostat, 2.5 µM final, for 24 h
Measured: 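Cell viability by fluorescence and apoptosis by caspase 3/7 luminescence under vorinostat, background-corrected, averaged across two plate copies and given as fold change versus mock transfection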
Direction: viability relative to mock: higher = more living cells than mock; caspase activity relative to mock: higher = more apoptosis than mock
Hit rule: 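An siRNA counts as active if classed as reduced viability or as caspase activation, otherwise inactive; a hit class needed wells that remained healthy in the absence of drug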

target gene | PubChem SID | viability relative to mock | caspase activity relative to mock | viability hit class | caspase hit class | outcome
UBC | SID134282521 | 0.02 | 0.94 | no change | no change | inactive
UBC | SID134282522 | 0.12 | 2.93 | no change | no change | inactive
UBC | SID134282523 | 0.08 | 1.8 | no change | no change | inactive
UBC | SID134282524 | 0.02 | 1.12 | no change | no change | inactive
UBE2M | SID134231365 | 1.04 | 1.16 | no change | no change | inactive
UBE2M | SID134231366 | 1.02 | 1.31 | no change | no change | inactive
UBE2M | SID134231367 | 0.8 | 0.78 | no change | no change | inactive
UBE2M | SID134231368 | 0.88 | 0.82 | no change | no change | inactive
TVP23C | SID134270851 | 1.02 | 2.95 | no change | caspase activation | active
TVP23C | SID134270852 | 0.88 | 1.67 | no change | no change | inactive
TVP23C | SID135614954 | 0.96 | 1.15 | no change | no change | inactive
TVP23C | SID135614955 | 0.2 | 1.85 | no change | no change | inactive
MAT2A | SID134244409 | 0.41 | 2.76 | reduced viability | caspase activation | active
MAT2A | SID134244412 | 0.84 | 1.18 | no change | no change | inactive
MAT2A | SID135612772 | 0.66 | 1.26 | no change | no change | inactive
MAT2A | SID135612773 | 0.68 | 0.96 | no change | no change | inactive
MTFR2 | SID134267861 | 0.89 | 1.46 | no change | no change | inactive
MTFR2 | SID134267862 | 0.52 | 1.05 | reduced viability | no change | active
MTFR2 | SID134267863 | 0.94 | 1.27 | no change | no change | inactive
MTFR2 | SID134267864 | 0.44 | 1.08 | reduced viability | no change | active
KCNK6 | SID134236457 | 0.98 | 1.77 | no change | no change | inactive
KCNK6 | SID134236458 | 0.92 | 0.97 | no change | no change | inactive
KCNK6 | SID134236459 | 0.86 | 2.42 | no change | no change | inactive
KCNK6 | SID134236460 | 0.8 | 3.64 | no change | caspase activation | active
GABRR3 | SID134292949 | 0.66 | 3.26 | no change | caspase activation | active
GABRR3 | SID134292950 | 0.96 | 0.77 | no change | no change | inactive
GABRR3 | SID134292951 | 0.44 | 1.62 | reduced viability | no change | active
GABRR3 | SID134292952 | 0.88 | 1 | no change | no change | inactive
OR2W5 | SID134309221 | 0.47 | 3.46 | reduced viability | caspase activation | active
OR2W5 | SID134309222 | 0.77 | 2.76 | no change | caspase activation | active
OR2W5 | SID134309223 | 0.53 | 2.62 | reduced viability | caspase activation | active
OR2W5 | SID135618253 | 0.72 | 2.56 | no change | no change | inactive
TRIM51G | SID134296398 | 0.74 | 4.42 | no change | caspase activation | active
TRIM51G | SID134296400 | 1.02 | 1.61 | no change | no change | inactive
TRIM51G | SID135617281 | 0.78 | 1.52 | no change | no change | inactive
TRIM51G | SID135617282 | 0.94 | 2.42 | no change | no change | inactive

Quoted from the entries so far (6 entries):
target gene | PubChem SID | viability relative to mock | caspase activity relative to mock | viability hit class | caspase hit class | outcome
GABRR3 | SID134292951 | 0.44 | 1.62 | reduced viability | no change | active
GABRR3 | SID134292952 | 0.88 | 1 | no change | no change | inactive
OR2W5 | SID134309221 | 0.47 | 3.46 | reduced viability | caspase activation | active
OR2W5 | SID134309222 | 0.77 | 2.76 | no change | caspase activation | active
OR2W5 | SID134309223 | 0.53 | 2.62 | reduced viability | caspase activation | active
OR2W5 | SID135618253 | 0.72 | 2.56 | no change | no change | inactive

Continued:
target gene | PubChem SID | viability relative to mock | caspase activity relative to mock | viability hit class | caspase hit class | outcome
CBX7 | SID134246897 | 1 | 2.17 | no change | no change | inactive
CBX7 | SID134246898 | 0.63 | 4.38 | no change | caspase activation | active
CBX7 | SID134246899 | 0.61 | 2.83 | no change | caspase activation | active
CBX7 | SID135612981 | 0.8 | 1.8 | no change | no change | inactive
BEGAIN | SID134262825 | 0.5 | 5.81 | reduced viability | caspase activation | active
BEGAIN | SID134262826 | 0.69 | 4.1 | no change | caspase activation | active
BEGAIN | SID134262827 | 0.94 | 0.86 | no change | no change | inactive
BEGAIN | SID134262828 | 1 | 2.96 | no change | caspase activation | active
TRIM24 | SID134233197 | 1.02 | 0.96 | no change | no change | inactive
TRIM24 | SID134233198 | 0.44 | 3.43 | reduced viability | caspase activation | active
TRIM24 | SID152148020 | 1.04 | 1.16 | no change | no change | inactive
TRIM24 | SID152149141 | 0.88 | 1.77 | no change | no change | inactive
FGFRL1 | SID134258937 | 0.39 | 1.96 | reduced viability | no change | active
FGFRL1 | SID134258938 | 0.9 | 0.77 | no change | no change | inactive
FGFRL1 | SID134258939 | 0.68 | 2.14 | no change | no change | inactive
FGFRL1 | SID135613964 | 0.88 | 2.54 | no change | no change | inactive
HNRNPK | SID134253777 | 0.69 | 1.52 | no change | no change | inactive
HNRNPK | SID134253778 | 0.38 | 2.7 | reduced viability | caspase activation | active
HNRNPK | SID134253779 | 0.6 | 1.79 | no change | no change | inactive
HNRNPK | SID134253780 | 0.51 | 2 | reduced viability | no change | active
DUS1L | SID134268593 | 0.27 | 4.05 | reduced viability | caspase activation | active
DUS1L | SID134268594 | 0.95 | 2.06 | no change | no change | inactive
DUS1L | SID134268595 | 0.72 | 1.63 | no change | no change | inactive
DUS1L | SID134268596 | 0.84 | 0.76 | no change | no change | inactive
